These are yes or no findings as the source states them, for the method shown. In cells and extracts the contact can be indirect. Some entries that bind do so weakly or less than the wild type.
Molecular target: Flag-tagged Smad3 (UniProt P84022)
Experiment: co-IP; Flag-Smad3 transfected into HK2 cells cultured in Mann or HG medium; NP-40 lysis buffer (50 mM Tris pH 7.5, 150 mM NaCl, 1 mM EDTA, 0.25% sodium deoxycholate); anti-Flag and Protein A/G PLUS-Agarose at 4°C overnight; blot with anti-Sirt6 for endogenous Sirt6

Protein sequences, listed by entry. Tags and fused reporters are not part of them.
UniProt P84022: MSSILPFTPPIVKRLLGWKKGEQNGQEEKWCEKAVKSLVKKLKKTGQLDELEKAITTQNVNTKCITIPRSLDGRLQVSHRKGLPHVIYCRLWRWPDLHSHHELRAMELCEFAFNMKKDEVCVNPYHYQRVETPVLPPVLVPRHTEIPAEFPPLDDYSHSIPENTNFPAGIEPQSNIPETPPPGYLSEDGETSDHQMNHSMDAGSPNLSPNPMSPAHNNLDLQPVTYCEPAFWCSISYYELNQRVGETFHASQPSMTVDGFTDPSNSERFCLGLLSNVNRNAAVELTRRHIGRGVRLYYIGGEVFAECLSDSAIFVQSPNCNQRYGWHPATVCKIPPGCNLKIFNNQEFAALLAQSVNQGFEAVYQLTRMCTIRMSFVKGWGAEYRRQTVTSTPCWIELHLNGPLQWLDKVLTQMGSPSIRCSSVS
UniProt Q8N6T7: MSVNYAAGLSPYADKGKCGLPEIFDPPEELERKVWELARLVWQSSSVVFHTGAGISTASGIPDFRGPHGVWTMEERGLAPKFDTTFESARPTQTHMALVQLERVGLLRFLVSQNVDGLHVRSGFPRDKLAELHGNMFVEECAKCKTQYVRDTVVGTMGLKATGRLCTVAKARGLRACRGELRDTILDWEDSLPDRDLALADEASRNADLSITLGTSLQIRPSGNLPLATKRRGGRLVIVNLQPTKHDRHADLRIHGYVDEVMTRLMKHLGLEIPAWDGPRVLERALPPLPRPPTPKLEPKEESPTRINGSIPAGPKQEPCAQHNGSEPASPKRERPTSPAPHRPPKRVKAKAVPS

Sirt6 (from UniProt Q8N6T7 1-355) (enzyme)
binding: binds

— paper PMC8172321
